The results in this text go back to patent US6632934.

No constants are given. Whether binding was seen depends on the method and setting. Some entries that bind do so weakly or less than the wild type. For some assays here: Where a sequence is shown, tags or fusion partners need not be part of it.

Assay [1] deals with T1, human Morc (non-mutated) polypeptide (human) (UniProt Q86VD1).
T1 sequence: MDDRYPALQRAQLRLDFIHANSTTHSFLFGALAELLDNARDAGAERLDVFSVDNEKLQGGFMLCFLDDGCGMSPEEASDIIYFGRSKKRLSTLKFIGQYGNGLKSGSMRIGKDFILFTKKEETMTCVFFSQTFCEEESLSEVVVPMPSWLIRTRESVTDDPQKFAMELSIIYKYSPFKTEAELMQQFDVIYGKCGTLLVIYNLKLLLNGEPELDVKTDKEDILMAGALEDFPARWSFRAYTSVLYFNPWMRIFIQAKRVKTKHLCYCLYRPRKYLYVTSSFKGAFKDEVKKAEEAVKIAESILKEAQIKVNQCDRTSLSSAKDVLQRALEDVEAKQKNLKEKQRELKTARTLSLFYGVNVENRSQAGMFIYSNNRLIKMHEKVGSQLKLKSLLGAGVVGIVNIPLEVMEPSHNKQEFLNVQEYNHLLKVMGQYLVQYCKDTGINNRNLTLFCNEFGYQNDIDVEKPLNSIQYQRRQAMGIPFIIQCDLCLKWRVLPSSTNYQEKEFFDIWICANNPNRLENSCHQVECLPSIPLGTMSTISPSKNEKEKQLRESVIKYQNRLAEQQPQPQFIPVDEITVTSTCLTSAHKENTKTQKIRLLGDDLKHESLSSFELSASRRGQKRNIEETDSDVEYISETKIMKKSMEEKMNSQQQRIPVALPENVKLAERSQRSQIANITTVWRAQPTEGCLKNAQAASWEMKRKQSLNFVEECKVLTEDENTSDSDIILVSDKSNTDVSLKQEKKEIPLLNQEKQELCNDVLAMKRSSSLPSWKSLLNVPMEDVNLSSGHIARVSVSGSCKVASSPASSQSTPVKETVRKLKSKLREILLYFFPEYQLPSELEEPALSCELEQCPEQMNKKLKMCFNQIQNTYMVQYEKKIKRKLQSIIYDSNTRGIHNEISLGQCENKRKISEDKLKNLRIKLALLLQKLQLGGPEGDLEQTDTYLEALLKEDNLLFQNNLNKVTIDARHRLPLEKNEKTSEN
In words: two-hybrid screen of a random human cDNA library with human Morc as bait.

Assay [2] addresses T2, human MORC tagged with an epitope (human) (UniProt Q86VD1).
T2 sequence: T1 sequence
In words: co-transfection of differently epitope-tagged proteins into cells, immunofluorescence microscopy.

B1: human 123F2 (protein, UniProt Q9NS23-4 1-270, looked up)
chain: MGEAEAPSFEMTWSSTTSSGYCSQEDSDSELEQYFTARTSLARRPRRDQDEPVEWETPDLSQAEIEQKIKEYNAQINSNLFMSLNKDGSYTGFIKVQLKLVRPVSVPSSKKPPSLQDARRGPGRGTSVRRRTSFYLPKDAVKHLHVLSRTRAREVIEALLRKFLVVDDPRKFALFERAERHGQVYLRKLLDDEQPLRLRLLAGPSDKALSFVLKENDSGEVNWDAFSMPELHNFLRILQREEEEHLRQILQKYSYCRQKIQEALHACPLG
Take B1: in assay [1], the binding result is on record as “binds”.

B2: human 123F2 tagged with another epitope (protein, UniProt Q9NS23-4 1-270, looked up, not shown: small tags and cut ends)
chain: B1 chain
Take B2: the binding entry in assay [2] was “binds”.
